The reference is the same well before dosing, and untreated signal decays as well.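 Labels refer to human fibroblasts, largely primary: uterine (C12385, HUF), lung (H6013), bone (Hs27A), adrenal (HADF), skin (WS1), plus mammary HMF and breast cancer-associated Hs343T. Cancer lines are basal-like or mesenchymal-like triple-negative breast cancer. The paper counts as hits responses shifting over 3x the replicate standard deviation. The tissue of the other fibroblasts is not given here.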
Tested on: BT20
Assay: relative JC-1 red fluorescence (viability) vs pre-drug, coculture with fibroblast (fraction); higher = more viable cancer cells
Details: 100 µM
Description: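 JC-1 labelled TNBC cells cocultured 1:1 (1,500 cells each) with CellTrace Violet stained primary or stromal fibroblasts in 384-well plates in FluoroBrite medium, treated with one of 42 anticancer drugs at 0.1, 1, 10 or 100 uM. JC-1 red fluorescence (mitochondrial integrity in cancer cells only) was read by plate reader every 8 h for 72 h. Values are normalised to each well's pre-drug value. The stock of one drug was tenfold lower, so its dose labels may be too high.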

C[C@]12CC[C@@H]3c4ccc(O)cc4C[C@@H](CCCCCCCCC[S+]([O-])CCCC(F)(F)C(F)(F)F)[C@H]3[C@@H]1CC[C@@H]2O (some centres undefined) [Fulvestrant]
relative JC-1 red fluorescence
Details | 8 h | 16 h | 24 h | 32 h | 40 h | 48 h | 56 h | 64 h | 72 h
coculture fibroblast: C12385 | 0.9874 | 0.987 | 0.978 | 0.9573 | 0.938 | 0.94 | 0.941 | 0.9452 | 0.94
coculture fibroblast: H6013 | 0.93 | 0.971 | 0.931 | 0.943 | 0.914 | 0.914 | 0.913 | 0.909 | 0.888
coculture fibroblast: H6019 | 0.9391 | 0.8931 | 0.8928 | 0.8443 | 0.817 | 0.812 | 0.797 | 0.784 | 0.779
coculture fibroblast: H6076 | 0.888 | 0.9685 | 0.895 | 0.871 | 0.843 | 0.828 | 0.812 | 0.81 | 0.812
coculture fibroblast: H6231 | 0.832 | 0.765 | 0.777 | 0.866 | 0.769 | 0.971 | 0.9955 | 0.9813 | 0.821
coculture fibroblast: HADF | 0.839 | 0.891 | 0.842 | 0.912 | 0.927 | 0.831 | 0.915 | 0.887 | 0.899
coculture fibroblast: HCFa | 0.859 | 0.84 | 0.867 | 0.943 | 0.867 | 0.909 | 0.742 | 0.802 | 0.825
coculture fibroblast: HCPF | 0.726 | 0.779 | 0.725 | 0.918 | 0.88 | 0.851 | 0.755 | 0.867 | 0.894
coculture fibroblast: HHSteC | 0.972 | 0.879 | 0.834 | 0.883 | 0.89 | 0.818 | 0.861 | 0.811 | 0.803
coculture fibroblast: HMF | 0.86 | 0.719 | 0.942 | 0.888 | 0.872 | 0.847 | 0.848 | 0.832 | 0.826
coculture fibroblast: HPFa | 0.841 | 0.847 | 0.798 | 0.874 | 0.904 | 0.717 | 0.93 | 0.871 | 0.935
coculture fibroblast: HUF | 0.9836 | 0.925 | 0.91 | 0.884 | 0.885 | 0.869 | 0.866 | 0.864 | 0.864
coculture fibroblast: Hs5 | 0.874 | 0.923 | 0.899 | 0.871 | 0.8584 | 0.843 | 0.855 | 0.851 | 0.867
coculture fibroblast: Hs27A | 0.721 | 0.815 | 0.901 | 0.753 | 0.854 | 0.845 | 0.732 | 0.901 | 0.764
coculture fibroblast: Hs343T | 0.813 | 0.861 | 0.887 | 0.841 | 0.806 | 0.773 | 0.752 | 0.728 | 0.753
coculture fibroblast: WS1 | 0.923 | 0.954 | 0.938 | 0.91 | 0.892 | 0.877 | 0.856 | 0.844 | 0.829
